Laboratory results as given in patent publication US12286437B2, “Cardiac sarcomere inhibitors” (Cytokinetics, Inc., priority 2021, dated 2025).

System: Rat Cardiac Contractility
Assay: Echocardiography assessment of acute pharmacodynamic effect in rat cardiac contractility (fractional shortening)
Type: in vivo, Sprague Dawley rats
Conditions: ratio
Protocol: Assessment of in vivo cardiac function by echocardiography was performed in male Sprague Dawley rats under isoflurane (1-3%) anesthesia. 2-D M-mode images of the left ventricle were acquired in the parasternal long-axis view before, during, and after administration of compounds. In vivo fractional shortening was determined by M-mode image analysis with the following calculation: ((End diastolic diameter−end systolic diameter)[…] end diastolic diameter×100). Three pre-dose baseline M-Mode images were taken at 1-minute intervals prior to compound administration. Compounds were formulated in a 0.5% hydroxypropyl methylcellulose 2910 (HPMC 2910): 0.1% Tween 80 suspension and delivered as a single dose (5 mL/kg) by oral gavage. At one and four hours post-dose, rats were lightly anesthetized for M-mode echocardiography measurement. Concurrent with echocardiography measurements, blood samples were taken to determine the corresponding compound plasma concentrations. The resulting plasma concentrations were used to estimate the IC50 and IC10 values, which is the concentration at which fractional shortening is 50% and 10% of the pre-dose baseline contractility, respectively.

SMILES	IC50/IC10
C[C@H]1CC[C@H](N2CC(=O)N(Cc3ccc(Cl)cc3)C3(CN(C(N)=O)C3)C2=O)CC1 [Compound 18, 5-(4-chlorobenzyl)-8-((1r,4r)-4-methylcyclohexyl)-6,9-dioxo-2,5,8-triazaspiro[3.5]nonane-2-carboxamide]	3.18
CC(C)N1CC(=O)N(Cc2ccc(C(F)(F)F)cc2)C2(CN(c3cccnn3)C2)C1=O [Compound 13, 8-isopropyl-2-(pyridazin-3-yl)-5-(4-(trifluoromethyl)benzyl)-2,5,8-triazaspiro[3.5]nonane-6,9-dione]	3.7
C[C@H]1CC[C@H](N2CC(=O)N(Cc3ccc(F)c(F)c3)C3(CN(C=O)C3)C2=O)CC1 [Compound 4, 5-(3,4-difluorobenzyl)-8-((1r,4r)-4-methylcyclohexyl)-6,9-dioxo-2,5,8-triazaspiro[3.5]nonane-2-carbaldehyde]	9.73
CC(C)N1CC(=O)N(Cc2ccc(Cl)c(F)c2)C2(CN(c3cccnn3)C2)C1=O [Compound 8, 5-(4-chloro-3-fluorobenzyl)-8-isopropyl-2-(pyridazin-3-yl)-2,5,8-triazaspiro[3.5]nonane-6,9-dione]	4.44
C[C@H]1CC[C@H](N2CC(=O)N(Cc3ccc(F)c(F)c3)C3(CN(C(N)=O)C3)C2=O)CC1 [Compound 5, 5-(3,4-difluorobenzyl)-8-((1r,4r)-4-methylcyclohexyl)-6,9-dioxo-2,5,8-triazaspiro[3.5]nonane-2-carboxamide]	3.79
